Assay results: US12708119B2, “Methods of reducing or preventing clostridioides difficile colonization” (priority 2020, dated 2026)
Some results were stated once for a whole list of compounds, not compound by compound.

Test system: Clostridioides difficile R20291 spores
Assay: Sporicidal enhancement of CotE_H2 and CDec_D1 aptamers in combination with Clinell sporicidal solution: growth / MSC (Examples 4 and 6)
Format: cell-based
Details: spores of the R20291 strain
Procedure: Prior to testing, CotE_H2 aptamers were diluted in nuclease free water to a concentration of 80 μM. The aptamers were folded by heating to 95° C. in a digital dry bath for 5 minutes and then immediately placed on ice and cooled to 2° C. The aptamers were stored at 2-4° C. while in use. A Clostridioides difficile SH11 bacterial spore inoculum was prepared to 1×10^7±5×10^6 CFUmL^−1 according to internal procedures. The inoculum was confirmed by serial dilution and plating out the resultant suspensions onto brain heart infusion agar supplemented with horse blood and yeast (BHI-YHT). CotE_H2 aptamers were further diluted in “TbKst” buffer to obtain 2× in-test concentrations (40, 20, 10 and 5 μM). Ten microlitres of C. difficile spores were added to 10 μL of each 2× in-test concentration of CotE_H2 aptamer. The spore suspension was pipette mixed and incubated with CotE_H2 aptamer at room temperature for one hour. The spores were then washed three times by centrifuging at 13,400 RPM for 10 minutes. In each wash the supernatant was removed, and the pellet was resuspended in 100 μL of “TbKst” buffer. […]
A total of six 2× in-test concentrations (1:2 dilutions) of the sporicidal test agent were prepared from the stock (100%, 50%, 25%, 12.5%, 6.25%, 3.125%). […] Growth was recorded as “+” and no growth as “−”. […]

Molecule	fold reduction in the concentration of peracetic acid required for sporicidal activity
Chitinase_D11: aptamer against CotEC Chitinase, SEQ ID NO: 5; fragments SEQ ID NO: 23, 36, 37 under the same ID (nucleic acid, DNA, backbone and methylation of C not given here) DNA: CCAGTGTAGACTACTCAATGCCTGGTAAATCGATGACCGCTGCCTCGCCTGAGTAATCATCGTACTATCCACAGGTCAACC	up to 4 fold
CDec_D1: aptamer against CdeC, SEQ ID NO: 6; Table 4 lists fragments SEQ ID NO: 38, 39 under CdeC_D1 (nucleic acid, DNA, backbone and methylation of C not given here) DNA: CCAGTGTAGACTACTCAATGCCGTGGACTGGTCGGGTTTGGATTCGGCAGATGAATCAGTAGTACTATCCACAGGTCAACC	up to 4 fold
